Data from PubChem BioAssay AID528 (NMMLSC, 2006).
Screen size: about 24,000 compounds; fewer than 10 were called active. The inconclusive results got no clear call from the source; some entries with a clear call stand among them for comparison.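 How the source made its calls: active means fluorescent ligand binding to cells raised by more than 40% of the manganese-induced maximum; inconclusive means compound's own fluorescence above 85% of the ligand control signal; inactive means the rest.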

By UniProt entry, the sequences of proteins in these tests, tags left out.
UniProt P13612, whole entry, looked up: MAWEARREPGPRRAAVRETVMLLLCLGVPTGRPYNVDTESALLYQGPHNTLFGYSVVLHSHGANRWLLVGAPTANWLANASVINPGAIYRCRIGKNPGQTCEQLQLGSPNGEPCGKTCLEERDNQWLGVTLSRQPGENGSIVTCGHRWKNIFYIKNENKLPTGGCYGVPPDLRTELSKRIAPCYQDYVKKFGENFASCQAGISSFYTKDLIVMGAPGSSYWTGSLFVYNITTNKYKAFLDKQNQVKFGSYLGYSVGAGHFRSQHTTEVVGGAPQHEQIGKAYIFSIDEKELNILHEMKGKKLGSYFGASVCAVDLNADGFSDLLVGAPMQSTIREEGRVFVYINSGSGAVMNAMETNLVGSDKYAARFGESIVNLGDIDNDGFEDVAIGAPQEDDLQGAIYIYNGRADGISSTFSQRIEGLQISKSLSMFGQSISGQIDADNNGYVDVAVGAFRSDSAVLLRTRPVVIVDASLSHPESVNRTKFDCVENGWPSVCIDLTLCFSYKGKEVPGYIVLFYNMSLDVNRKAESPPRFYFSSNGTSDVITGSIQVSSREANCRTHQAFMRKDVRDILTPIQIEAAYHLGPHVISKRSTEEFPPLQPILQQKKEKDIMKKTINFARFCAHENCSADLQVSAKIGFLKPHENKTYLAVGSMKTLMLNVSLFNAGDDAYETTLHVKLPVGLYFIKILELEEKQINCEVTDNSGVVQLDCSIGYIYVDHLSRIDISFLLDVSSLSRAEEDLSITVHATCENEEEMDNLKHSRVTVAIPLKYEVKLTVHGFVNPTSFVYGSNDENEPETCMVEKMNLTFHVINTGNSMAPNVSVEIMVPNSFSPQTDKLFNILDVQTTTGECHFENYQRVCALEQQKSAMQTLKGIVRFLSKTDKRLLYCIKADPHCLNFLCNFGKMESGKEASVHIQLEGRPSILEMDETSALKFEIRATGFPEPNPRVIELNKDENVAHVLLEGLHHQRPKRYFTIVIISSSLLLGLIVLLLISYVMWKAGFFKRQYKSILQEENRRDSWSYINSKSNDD

What follows are compounds tested against Integrin alpha-4 (Homo sapiens) (UniProt P13612) (assay: enhancers of LDV-FITC binding to VLA-4 integrin, primary screen, Jurkat cells, flow cytometry (AID 528;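 on activation: 0% = ligand binding without compound and 100% = manganese-stimulated maximal binding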)). Conditions: hits give high values, screened at 10 µM (by protocol).

Structure (SMILES)	activation
Cc1nc2sc(C(c3ccccc3)N3CCC(O)CC3)c(O)n2n1 (configuration not stated)	inconclusive
Cc1nc2ccccc2c2oc(C(=O)NCc3ccccn3)cc12	inactive: -4%
COc1cccc(CN=CC2=C(O)CC(C)(C)CC2=O)c1OC	inconclusive
CCOc1cc(C2C(C(=O)O)c3cc(OCC)c(OCC)cc3C(=O)N2C)ccc1O (configuration not stated)	inconclusive
O=c1[nH]c2ccsc2c(=O)n1-c1ccc(F)c(Cl)c1	inconclusive
COc1ccccc1/C=c1\sc2nc(-c3ccco3)nn2c1=O	inactive: 1%
Cc1noc(C)c1S(=O)(=O)N(CC(=O)NCc1ccc2c(c1)OCO2)c1ccc(C(C)C)cc1	inconclusive
Cc1nc2sc(C(c3ccco3)N3CC(C)OC(C)C3)c(O)n2n1 (configuration not stated)	inconclusive
COC(=O)Cn1c2c(c3cc(C)ccc31)CCCC2	inactive: -10%
CCOC(=O)c1ccc(Oc2nc(NC(C)(C)C)nc(N(C)C)n2)cc1	inconclusive
O=C(Nc1ccc2c(c1)OCO2)C(c1ccccc1)N1CCC2(CC1)OCCO2 (configuration not stated)	inconclusive
O=C1Nc2ccccc2C(O)(C(=O)NCc2ccco2)N1c1ccc(Cl)c(Cl)c1 (configuration not stated)	inconclusive
CCN1CCCC1CN=Cc1c(O)n(-c2ccccc2)c(=O)c2ccccc12 (configuration not stated)	inconclusive
CCOc1ccccc1NC(=O)CSc1nccn1-c1ccccc1	inactive: -4%
COc1cccc(NC(=O)CSc2nc3n[nH]c(C)c3c(=N)n2-c2cccc(OC)c2)c1	inconclusive
COc1ccc(CCN(C)CCCC(C#N)(c2ccc(OC)c(OC)c2)C(C)C)cc1OC (configuration not stated)	inactive: 6%
CN(C(=O)c1coc(=O)c2ccccc12)c1ccc(F)cc1	inconclusive
Cc1cccc(N2CCN(C(=O)COc3cc(=O)n(C)c4ccccc34)CC2)c1C	inconclusive
COc1ccc(OC)c(NC(=O)C2CCC(CNc3c(N4CCC(C)CC4)c(=O)c3=O)CC2)c1 (configuration not stated)	inconclusive
Cc1ccc(CN2CCSc3ccc(C(=O)N4CCN(c5ncccn5)CC4)cc32)cc1	inactive: -4%
CCCOc1ccc2oc(=O)c3c(c2c1)CCCN3C(=O)CN1CCN(c2ncccn2)CC1	inconclusive
CCCS(=O)(=O)N1CCCC(C(=O)NCCc2ccc(Cl)cc2)C1 (configuration not stated)	inactive: -5%
COc1ccccc1CNC(=O)c1nnc(Cc2ccc(Cl)cc2)o1	inconclusive
CCOc1ccccc1NC1c2ccccc2C(=O)N1c1cccnc1 (configuration not stated)	inactive: 1%
O=C1CCc2cc(S(=O)(=O)NC(Cc3ccccc3)C(=O)NC3CCCCC3)ccc2N1 (configuration not stated)	inconclusive
OC(C#Cc1ccccn1)c1cccs1 (configuration not stated)	inconclusive
COC(=O)c1ccccc1NC(=O)CCNC(=O)Cn1cnc2ccccc2c1=O	inconclusive

Not a retest: entries from further up.
Structure (SMILES)	activation
COc1ccc(CCN(C)CCCC(C#N)(c2ccc(OC)c(OC)c2)C(C)C)cc1OC (configuration not stated)	inactive: 6%
CN(C(=O)c1coc(=O)c2ccccc12)c1ccc(F)cc1	inconclusive
